Laboratory results: PubChem BioAssay AID652272 (Drosophila RNAi Screening Center, 2013)
Assay: 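Finding fly genes that regulate Hedgehog signal transduction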 (primary screen). Cells: Drosophila clone 8 (Cl8) cells. Reagents: long dsRNA against Drosophila genes. Detection: 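Plate reader light from a firefly reporter under a ptc promoter fragment that responds to Hedgehog, with Renilla light as transfection reference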. Scale: firefly Hh reporter signal: higher = more ptc reporter light; Renilla reference signal: higher = more Renilla control light. Call rule: 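Called a hit if the two-replicate mean z-score lies below -2 or above +3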. Calls: active = hit: reporter lowered or raised; inactive = not a hit.
The deposit covers about 21,000 reagents; shown is an unselected part of those that have a named target and a result. Of all reagents, 503 (2.4%) were called active. 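Raw plate light values, not normalised; calls rest on replicate z-scores that were not deposited; hits include reporter decreases as well as increases.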 The numbers tell different reagents against one gene apart. No sequences are given here. Not stated in the record: the amount of reagent, the time to read-out.

loh #1
- firefly Hh reporter signal, replicate 1: 4.96e5
- firefly Hh reporter signal, replicate 2: 1.93e5
- Renilla reference signal, replicate 1: 26775
- Renilla reference signal, replicate 2: 8385
- Call: inactive

loh #2
- firefly Hh reporter signal, replicate 1: 92117
- firefly Hh reporter signal, replicate 2: 73744
- Renilla reference signal, replicate 1: 2548
- Renilla reference signal, replicate 2: 6253
- Call: inactive

ATPCL
- firefly Hh reporter signal, replicate 1: 96628
- firefly Hh reporter signal, replicate 2: 55709
- Renilla reference signal, replicate 1: 2352
- Renilla reference signal, replicate 2: 4180
- Call: inactive

rumi
- firefly Hh reporter signal, replicate 1: 95283
- firefly Hh reporter signal, replicate 2: 1.05e5
- Renilla reference signal, replicate 1: 4201
- Renilla reference signal, replicate 2: 3843
- Call: inactive

apn
- firefly Hh reporter signal, replicate 1: 71285
- firefly Hh reporter signal, replicate 2: 78564
- Renilla reference signal, replicate 1: 2752
- Renilla reference signal, replicate 2: 1970
- Call: inactive

CG15594
- firefly Hh reporter signal, replicate 1: 1.08e5
- firefly Hh reporter signal, replicate 2: 1.21e5
- Renilla reference signal, replicate 1: 4001
- Renilla reference signal, replicate 2: 3488
- Call: inactive

Dop2R #1
- firefly Hh reporter signal, replicate 1: 1.18e5
- firefly Hh reporter signal, replicate 2: 2.93e5
- Renilla reference signal, replicate 1: 3837
- Renilla reference signal, replicate 2: 11706
- Call: inactive

Dop2R #2
- firefly Hh reporter signal, replicate 1: 1.32e5
- firefly Hh reporter signal, replicate 2: 3.69e5
- Renilla reference signal, replicate 1: 3953
- Renilla reference signal, replicate 2: 14245
- Call: inactive

Ugt37D1
- firefly Hh reporter signal, replicate 1: 83937
- firefly Hh reporter signal, replicate 2: 59370
- Renilla reference signal, replicate 1: 2187
- Renilla reference signal, replicate 2: 5319
- Call: inactive

Cyp6a19
- firefly Hh reporter signal, replicate 1: 1.22e5
- firefly Hh reporter signal, replicate 2: 58945
- Renilla reference signal, replicate 1: 4801
- Renilla reference signal, replicate 2: 1888
- Call: inactive

blanks
- firefly Hh reporter signal, replicate 1: 81673
- firefly Hh reporter signal, replicate 2: 81211
- Renilla reference signal, replicate 1: 4832
- Renilla reference signal, replicate 2: 5378
- Call: inactive

CG33253 #1
- firefly Hh reporter signal, replicate 1: 1.02e5
- firefly Hh reporter signal, replicate 2: 3.60e5
- Renilla reference signal, replicate 1: 2803
- Renilla reference signal, replicate 2: 14899
- Call: inactive

CG33253 #2
- firefly Hh reporter signal, replicate 1: 1.42e5
- firefly Hh reporter signal, replicate 2: 3.87e5
- Renilla reference signal, replicate 1: 5088
- Renilla reference signal, replicate 2: 16332
- Call: inactive

CG13801
- firefly Hh reporter signal, replicate 1: 86504
- firefly Hh reporter signal, replicate 2: 50323
- Renilla reference signal, replicate 1: 2880
- Renilla reference signal, replicate 2: 3581
- Call: inactive

CG33159
- firefly Hh reporter signal, replicate 1: 6.52e5
- firefly Hh reporter signal, replicate 2: 1.55e5
- Renilla reference signal, replicate 1: 6272
- Renilla reference signal, replicate 2: 6272
- Call: inactive

m
- firefly Hh reporter signal, replicate 1: 38954
- firefly Hh reporter signal, replicate 2: 1.65e5
- Renilla reference signal, replicate 1: 1440
- Renilla reference signal, replicate 2: 8122
- Call: inactive

Fic
- firefly Hh reporter signal, replicate 1: 57116
- firefly Hh reporter signal, replicate 2: 1.53e5
- Renilla reference signal, replicate 1: 2417
- Renilla reference signal, replicate 2: 5814
- Call: inactive

CG4701
- firefly Hh reporter signal, replicate 1: 84173
- firefly Hh reporter signal, replicate 2: 54425
- Renilla reference signal, replicate 1: 2513
- Renilla reference signal, replicate 2: 5689
- Call: inactive

Loxl2
- firefly Hh reporter signal, replicate 1: 66788
- firefly Hh reporter signal, replicate 2: 66758
- Renilla reference signal, replicate 1: 2675
- Renilla reference signal, replicate 2: 2832
- Call: inactive

CG6154
- firefly Hh reporter signal, replicate 1: 6.38e5
- firefly Hh reporter signal, replicate 2: 1.12e5
- Renilla reference signal, replicate 1: 38993
- Renilla reference signal, replicate 2: 3661
- Call: inactive

CG8401
- firefly Hh reporter signal, replicate 1: 1.24e5
- firefly Hh reporter signal, replicate 2: 84825
- Renilla reference signal, replicate 1: 5431
- Renilla reference signal, replicate 2: 3920
- Call: inactive

Looked up above:
Under “Renilla reference signal, replicate 1”, m shows 1440
Result of Dop2R #1 in “Renilla reference signal, replicate 2”: 11706
